# Source: the supplement of paper PMC10849652
# Chains of the proteins cited; added tags and fusions are not shown. Lines headed by an entry give the natural chain unless they say otherwise; changes in a name come on top.
# UniProt Q5T6F2: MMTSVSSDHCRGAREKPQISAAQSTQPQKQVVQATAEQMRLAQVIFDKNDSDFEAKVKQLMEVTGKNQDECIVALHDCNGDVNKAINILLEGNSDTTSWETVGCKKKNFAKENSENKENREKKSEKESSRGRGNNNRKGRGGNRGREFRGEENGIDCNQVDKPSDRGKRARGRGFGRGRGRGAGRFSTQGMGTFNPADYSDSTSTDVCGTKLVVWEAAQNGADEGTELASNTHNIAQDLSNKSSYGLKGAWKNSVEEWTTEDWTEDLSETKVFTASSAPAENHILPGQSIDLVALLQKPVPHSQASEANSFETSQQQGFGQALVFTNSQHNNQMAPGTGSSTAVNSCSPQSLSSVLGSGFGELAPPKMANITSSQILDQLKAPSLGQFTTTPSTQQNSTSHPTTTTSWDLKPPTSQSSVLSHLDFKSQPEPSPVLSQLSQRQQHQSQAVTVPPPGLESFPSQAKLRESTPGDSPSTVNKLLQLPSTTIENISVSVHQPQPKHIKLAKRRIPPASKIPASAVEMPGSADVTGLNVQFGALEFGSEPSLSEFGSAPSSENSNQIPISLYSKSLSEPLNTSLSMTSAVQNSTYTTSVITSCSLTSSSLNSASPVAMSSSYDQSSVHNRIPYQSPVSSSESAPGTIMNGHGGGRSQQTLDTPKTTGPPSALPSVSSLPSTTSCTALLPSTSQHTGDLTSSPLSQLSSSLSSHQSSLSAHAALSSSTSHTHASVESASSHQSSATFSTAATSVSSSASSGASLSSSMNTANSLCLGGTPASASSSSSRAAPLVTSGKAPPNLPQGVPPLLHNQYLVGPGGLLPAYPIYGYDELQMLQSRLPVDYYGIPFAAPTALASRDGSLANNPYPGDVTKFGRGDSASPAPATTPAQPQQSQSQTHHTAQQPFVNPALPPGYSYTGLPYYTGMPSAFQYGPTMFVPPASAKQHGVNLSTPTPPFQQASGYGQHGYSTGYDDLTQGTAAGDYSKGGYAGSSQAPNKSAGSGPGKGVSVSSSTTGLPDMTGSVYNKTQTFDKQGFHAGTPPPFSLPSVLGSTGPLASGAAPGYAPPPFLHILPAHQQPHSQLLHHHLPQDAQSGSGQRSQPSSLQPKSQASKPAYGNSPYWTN
# UniProt P17480: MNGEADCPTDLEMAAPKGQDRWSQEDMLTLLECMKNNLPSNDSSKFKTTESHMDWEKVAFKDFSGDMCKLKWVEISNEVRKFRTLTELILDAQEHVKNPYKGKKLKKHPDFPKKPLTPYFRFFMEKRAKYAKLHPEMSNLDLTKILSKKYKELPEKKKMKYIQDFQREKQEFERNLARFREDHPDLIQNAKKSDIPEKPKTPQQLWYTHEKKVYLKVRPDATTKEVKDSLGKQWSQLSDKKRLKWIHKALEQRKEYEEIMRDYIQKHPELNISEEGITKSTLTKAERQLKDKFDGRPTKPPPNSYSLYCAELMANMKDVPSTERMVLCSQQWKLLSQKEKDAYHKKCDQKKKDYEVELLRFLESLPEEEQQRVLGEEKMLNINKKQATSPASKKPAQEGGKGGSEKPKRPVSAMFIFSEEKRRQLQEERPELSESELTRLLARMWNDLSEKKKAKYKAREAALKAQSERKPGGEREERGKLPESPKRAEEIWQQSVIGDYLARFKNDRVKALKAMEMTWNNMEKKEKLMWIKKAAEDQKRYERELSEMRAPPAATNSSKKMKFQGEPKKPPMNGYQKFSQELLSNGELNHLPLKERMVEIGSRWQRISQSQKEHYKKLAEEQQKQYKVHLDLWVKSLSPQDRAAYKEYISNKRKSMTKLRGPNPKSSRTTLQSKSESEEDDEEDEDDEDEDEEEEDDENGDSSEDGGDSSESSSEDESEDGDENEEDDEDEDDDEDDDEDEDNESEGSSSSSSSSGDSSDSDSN
# UniProt Q96S82: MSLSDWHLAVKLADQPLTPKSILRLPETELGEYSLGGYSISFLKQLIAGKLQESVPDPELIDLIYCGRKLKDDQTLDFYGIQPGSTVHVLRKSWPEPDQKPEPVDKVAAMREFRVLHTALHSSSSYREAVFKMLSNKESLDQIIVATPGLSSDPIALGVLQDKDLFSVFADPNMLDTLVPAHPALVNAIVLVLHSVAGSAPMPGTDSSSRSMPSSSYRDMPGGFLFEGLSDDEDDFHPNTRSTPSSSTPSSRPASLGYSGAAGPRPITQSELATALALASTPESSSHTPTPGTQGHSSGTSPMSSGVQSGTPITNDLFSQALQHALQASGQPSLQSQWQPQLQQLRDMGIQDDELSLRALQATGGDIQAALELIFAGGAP
# UniProt P68366, whole entry, looked up: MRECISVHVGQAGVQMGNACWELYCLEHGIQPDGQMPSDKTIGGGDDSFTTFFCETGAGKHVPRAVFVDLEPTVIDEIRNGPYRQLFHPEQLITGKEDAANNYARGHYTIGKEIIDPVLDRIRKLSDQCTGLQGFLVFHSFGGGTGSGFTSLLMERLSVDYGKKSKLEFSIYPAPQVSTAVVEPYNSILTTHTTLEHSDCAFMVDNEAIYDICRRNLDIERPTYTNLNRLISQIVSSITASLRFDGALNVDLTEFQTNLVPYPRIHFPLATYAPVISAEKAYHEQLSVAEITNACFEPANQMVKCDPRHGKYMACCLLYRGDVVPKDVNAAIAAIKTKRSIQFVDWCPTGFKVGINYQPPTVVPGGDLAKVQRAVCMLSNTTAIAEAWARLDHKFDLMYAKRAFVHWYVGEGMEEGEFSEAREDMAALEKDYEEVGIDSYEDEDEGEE
# UniProt P62256: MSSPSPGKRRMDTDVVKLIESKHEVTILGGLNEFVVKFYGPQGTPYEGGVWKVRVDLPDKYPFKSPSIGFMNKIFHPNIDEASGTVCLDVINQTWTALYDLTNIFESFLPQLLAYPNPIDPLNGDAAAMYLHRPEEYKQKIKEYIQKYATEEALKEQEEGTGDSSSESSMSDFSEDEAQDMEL
# UniProt O43396: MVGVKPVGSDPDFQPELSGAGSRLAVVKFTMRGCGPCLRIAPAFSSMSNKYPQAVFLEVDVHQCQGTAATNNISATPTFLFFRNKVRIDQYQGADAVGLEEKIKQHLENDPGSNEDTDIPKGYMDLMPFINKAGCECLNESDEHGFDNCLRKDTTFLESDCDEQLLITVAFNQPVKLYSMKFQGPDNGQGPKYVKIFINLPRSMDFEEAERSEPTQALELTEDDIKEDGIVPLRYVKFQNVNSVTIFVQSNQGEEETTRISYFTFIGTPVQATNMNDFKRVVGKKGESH
# UniProt Q9BSL1: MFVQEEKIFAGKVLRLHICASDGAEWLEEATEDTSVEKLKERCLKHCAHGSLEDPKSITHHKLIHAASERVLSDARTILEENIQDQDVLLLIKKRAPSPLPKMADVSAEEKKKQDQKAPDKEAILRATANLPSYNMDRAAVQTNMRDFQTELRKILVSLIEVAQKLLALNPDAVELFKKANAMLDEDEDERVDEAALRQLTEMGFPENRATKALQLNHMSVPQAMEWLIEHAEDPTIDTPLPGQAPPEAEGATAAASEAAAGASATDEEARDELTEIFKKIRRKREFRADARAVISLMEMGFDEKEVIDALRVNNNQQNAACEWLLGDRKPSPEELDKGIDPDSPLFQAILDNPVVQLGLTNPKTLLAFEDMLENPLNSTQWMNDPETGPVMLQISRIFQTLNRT
# UniProt Q9HA47: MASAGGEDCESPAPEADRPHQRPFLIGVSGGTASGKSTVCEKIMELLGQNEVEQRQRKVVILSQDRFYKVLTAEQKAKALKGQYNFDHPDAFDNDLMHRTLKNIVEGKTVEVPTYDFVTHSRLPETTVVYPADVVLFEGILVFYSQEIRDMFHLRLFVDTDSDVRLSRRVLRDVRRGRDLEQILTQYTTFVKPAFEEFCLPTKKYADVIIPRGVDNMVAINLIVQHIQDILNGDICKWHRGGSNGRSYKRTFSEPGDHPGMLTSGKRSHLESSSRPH
# UniProt P61081: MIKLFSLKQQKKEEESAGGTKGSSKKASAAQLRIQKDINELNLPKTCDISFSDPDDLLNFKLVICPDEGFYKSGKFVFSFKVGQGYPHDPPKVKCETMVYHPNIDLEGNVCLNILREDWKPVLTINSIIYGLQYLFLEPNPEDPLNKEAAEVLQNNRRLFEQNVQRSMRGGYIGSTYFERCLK
# UniProt Q9NX01: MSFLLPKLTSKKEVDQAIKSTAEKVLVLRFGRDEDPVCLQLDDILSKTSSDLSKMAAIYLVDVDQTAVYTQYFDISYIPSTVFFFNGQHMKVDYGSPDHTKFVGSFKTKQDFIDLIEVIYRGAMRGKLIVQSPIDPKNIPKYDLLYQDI
# UniProt Q9UJT0: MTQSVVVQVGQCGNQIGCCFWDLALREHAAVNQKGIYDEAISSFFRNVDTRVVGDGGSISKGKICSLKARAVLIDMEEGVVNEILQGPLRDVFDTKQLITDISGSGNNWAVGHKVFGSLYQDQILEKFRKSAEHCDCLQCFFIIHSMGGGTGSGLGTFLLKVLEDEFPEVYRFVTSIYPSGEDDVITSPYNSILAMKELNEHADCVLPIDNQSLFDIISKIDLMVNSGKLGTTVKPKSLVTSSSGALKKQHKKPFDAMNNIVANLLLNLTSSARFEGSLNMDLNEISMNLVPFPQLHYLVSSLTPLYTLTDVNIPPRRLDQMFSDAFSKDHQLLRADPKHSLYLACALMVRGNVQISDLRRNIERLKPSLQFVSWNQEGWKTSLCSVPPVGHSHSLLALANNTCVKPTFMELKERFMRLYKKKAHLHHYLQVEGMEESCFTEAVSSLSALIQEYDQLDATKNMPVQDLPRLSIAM
# UniProt O94888: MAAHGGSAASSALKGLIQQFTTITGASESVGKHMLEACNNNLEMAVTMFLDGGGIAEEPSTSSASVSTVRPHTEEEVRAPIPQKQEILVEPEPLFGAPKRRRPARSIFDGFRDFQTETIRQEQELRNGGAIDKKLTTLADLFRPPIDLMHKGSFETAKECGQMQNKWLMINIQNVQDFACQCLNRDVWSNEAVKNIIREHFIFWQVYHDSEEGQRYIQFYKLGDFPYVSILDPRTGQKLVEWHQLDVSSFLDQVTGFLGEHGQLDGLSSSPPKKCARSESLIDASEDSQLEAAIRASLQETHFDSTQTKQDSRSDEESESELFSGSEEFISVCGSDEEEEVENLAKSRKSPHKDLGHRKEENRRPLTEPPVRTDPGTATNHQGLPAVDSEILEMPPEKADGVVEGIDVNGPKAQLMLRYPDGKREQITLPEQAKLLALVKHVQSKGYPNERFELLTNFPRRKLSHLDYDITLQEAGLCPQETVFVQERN
# UniProt Q9BRA2: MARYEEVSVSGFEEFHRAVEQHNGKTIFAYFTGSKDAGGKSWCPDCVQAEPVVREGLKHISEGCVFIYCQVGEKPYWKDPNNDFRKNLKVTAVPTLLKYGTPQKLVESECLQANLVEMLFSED
# UniProt Q9BZV1: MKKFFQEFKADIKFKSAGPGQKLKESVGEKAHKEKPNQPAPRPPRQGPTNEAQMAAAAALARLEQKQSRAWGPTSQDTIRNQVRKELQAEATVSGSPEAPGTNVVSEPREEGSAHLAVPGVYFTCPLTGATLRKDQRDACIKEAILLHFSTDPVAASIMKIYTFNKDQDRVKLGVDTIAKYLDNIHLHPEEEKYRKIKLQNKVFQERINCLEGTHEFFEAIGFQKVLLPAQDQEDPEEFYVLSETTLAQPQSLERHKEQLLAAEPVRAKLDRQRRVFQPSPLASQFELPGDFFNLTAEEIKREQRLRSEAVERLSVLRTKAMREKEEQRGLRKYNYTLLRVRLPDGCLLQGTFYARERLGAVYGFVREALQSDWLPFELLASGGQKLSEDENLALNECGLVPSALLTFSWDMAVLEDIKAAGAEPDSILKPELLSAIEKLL
# The other results are listed elsewhere or left out.
# Tests used:
# Assay in all cases: log2 fold change, soluble protein after heating vs DMSO (PISA); higher = thermal stabilisation; K562 lysate, 10 uM; active = over 0.2 and 3.5 SD of the protein, either way, in both replicates (recomputed)
# ibrutinib = compound: C=CC(=O)N1CCC[C@@H](n2nc(-c3ccc(Oc4ccccc4)cc3)c3c(N)ncnc32)C1 [ibrutinib]
# Outline: (§1)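 Soluble protein was defined as the supernatant remaining after 21,000xg for 90 min, following pooling of heated aliquots and adjustment to 0.5% NP-40 at 4°C. Before that, crude K562 extract at 1 mg/mL protein in PBS pH 7.4 with 1 mM MgCl2 was treated with 10 μM compound for 30 min and heated for 3 min across 48°C-58°C. Quantification used TMTpro 16plex LC-MS/MS with channel sums equalised, and values are log-two fold changes in thermal stability relative to solvent controls from duplicates.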
# [1] = compound: CC(=O)c1cnc2ccc(-c3cc(Cl)c(O)c(Cl)c3)nc2c1N[C@H]1CC[C@H](CN(C)C)CC1
# Outline: as §1
# ralimetinib = compound: CC(C)(C)Cn1c(N)nc2ccc(-c3[nH]c(C(C)(C)C)nc3-c3ccc(F)cc3)nc21 [ralimetinib]
# Outline: as §1
# [2] = compound: CC(C)(O)CC(=O)NCCn1ccc2ncnc(Nc3ccc(Oc4cccc(C(F)(F)F)c4)c(Cl)c3)c21
# Outline: as §1
# [3] = compound: CC(C)C1=C2N=C(C=C(N2N=C1)NCC3=CC=CC=C3)NCCCCCCN
# Outline: as §1
# [4] = compound: CC1=C(C(CC(=O)N1)C2=CC=C(C=C2)C(F)(F)F)C(=O)NC3=C(C=C4C(=C3)C=NN4)F
# Outline: as §1
# [5] = compound: CC1=C(C2=C(C=C1)C(=O)C3=CC=CC=C3N2CCCN)C
# Outline: as §1
# [6] = compound: CC1=C(C=C(C=C1)NC(=O)C2=CC(=CC=C2)C(C)(C)C#N)NC3=CC4=C(C=C3)N=CN(C4=O)C
# Outline: as §1
# [7] = compound: CC1=C(C=C(C=C1)NC(=O)C2=CC(=CC=C2)N(C)C)NC(=O)C3=CC=C(C=C3)O
# Outline: as §1
# [8] = compound: CC1=CC=C(C=C1)SC2=C3C=C(SC3=CN=C2)C(=O)N
# Outline: as §1
# vemurafenib = compound: CCCS(=O)(=O)Nc1ccc(F)c(C(=O)c2c[nH]c3ncc(-c4ccc(Cl)cc4)cc23)c1F [vemurafenib]
# Outline: as §1
# [9] = compound: CCCS(=O)(=O)Nc1ccc(F)c(C(=O)c2c[nH]c3ncc(Cl)cc23)c1F
# Outline: as §1
# barasertib = compound: CCN(CCCOc1ccc2c(Nc3cc(CC(=O)Nc4cccc(F)c4)[nH]n3)ncnc2c1)CCOP(=O)(O)O [barasertib]
# Outline: as §1
# [10] = compound: CC[C@@H]1C(=O)N(C)c2cnc(Nc3ccc(C(=O)NC4CCN(C)CC4)cc3OC)nc2N1C1CCCC1
# Outline: as §1
# volasertib = compound: CC[C@@H]1C(=O)N(C)c2cnc(Nc3ccc(C(=O)N[C@H]4CC[C@H](N5CCN(CC6CC6)CC5)CC4)cc3OC)nc2N1C(C)C [volasertib]
# Outline: as §1
# [11] = compound: CCn1c(C(=O)N(C2CC2)C2CC2)cc2c3c(ncn3C)c(Nc3cc(C)n(C)n3)nc21
# Outline: as §1
# [12] = compound: CCn1cc(-c2ccnc3[nH]c(-c4cccc(CN(C)C)c4)cc23)c(-c2ccc(NC(=O)N(C)C)cc2)n1
# Outline: as §1
# [13] = compound: CN1CCC(CNc2ccc3ncc(-c4cccc(OC(F)(F)F)c4)n3n2)CC1
# Outline: as §1
# saracatinib = compound: CN1CCN(CCOc2cc(OC3CCOCC3)c3c(Nc4c(Cl)ccc5c4OCO5)ncnc3c2)CC1 [saracatinib]
# Outline: as §1
# sotrastaurin = compound: CN1CCN(c2nc(C3=C(c4c[nH]c5ccccc45)C(=O)NC3=O)c3ccccc3n2)CC1 [sotrastaurin]
# Outline: as §1
Target,log2 fold change (ibrutinib),log2 fold change [1],log2 fold change (ralimetinib),log2 fold change [2],log2 fold change [3],log2 fold change [4],log2 fold change [5],log2 fold change [6],log2 fold change [7],log2 fold change [8],log2 fold change (vemurafenib),log2 fold change [9],log2 fold change (barasertib),log2 fold change [10],log2 fold change (volasertib),log2 fold change [11],log2 fold change [12],log2 fold change [13],log2 fold change (saracatinib),log2 fold change (sotrastaurin)
UBAP2 (UniProt Q5T6F2),inactive: 0.014,inactive: 0.009,inactive: -0.044,inactive: -0.067,inactive: 0.008,inactive: 0.03,inactive: 0.006,active: -0.474,inactive: -0.026,inactive: -0.019,inactive: 0.009,inactive: 0.016,inactive: -0.007,inactive: 0.071,inactive: -0.002,inactive: 0.004,inactive: -0.172,inactive: 0.106,inactive: 0.028,inactive: 0.02
UBTF (UniProt P17480),inactive: 0.026,inactive: 0.025,inactive: 0.017,inactive: -0.002,inactive: 0.016,inactive: 0.046,inactive: -0.075,inactive: -0.022,inactive: 0.044,inactive: -0.002,inactive: -0.024,inactive: 0.002,inactive: 0.011,active: -0.291,inactive: -0.011,inactive: 0.002,inactive: 0.038,inactive: -0.067,inactive: 0.042,inactive: 0.023
UBL7 (UniProt Q96S82),inactive: 0.075,inactive: -0.016,inactive: 0.019,inactive: -0.011,inactive: -0.011,inactive: 0.012,inactive: 0.018,inactive: 0.051,inactive: 0.003,inactive: -0.01,inactive: -0.005,inactive: -0.012,inactive: 0.086,inactive: -0.029,inactive: 0.017,inactive: -0.013,inactive: -0.032,inactive: -0.089,inactive: -0.014,inactive: -0.044
TUBA4A (UniProt P68366),inactive: -0.012,inactive: 0.023,inactive: 0.012,inactive: 0.017,inactive: 0.023,inactive: -0.031,inactive: -0.013,inactive: 0.017,inactive: -0.017,inactive: 0.012,inactive: 0.003,inactive: -0.045,inactive: 0.028,inactive: -0.023,inactive: -0.056,inactive: 0.033,inactive: -0.05,inactive: 0.003,inactive: -0.036,inactive: -0.039
UBE2H (UniProt P62256),inactive: 0.032,inactive: 0.026,inactive: -0.033,inactive: -0.002,inactive: -0.004,inactive: 0.064,inactive: 0.022,inactive: 0.005,inactive: 0.026,inactive: -0.027,inactive: -0.032,inactive: -0.013,inactive: -0.006,inactive: 0.011,inactive: 0.004,inactive: -0.055,inactive: 0.166,active: -0.227,inactive: -0.056,inactive: -0.02
UBR4 (UniProt Q5T4S7),inactive: -0.019,inactive: -0.008,inactive: 0.02,inactive: -0.011,inactive: -0.02,inactive: 0.003,inactive: 0.011,inactive: 0.009,inactive: 0.014,inactive: 0.01,inactive: -0.003,inactive: 0.016,inactive: 0.02,inactive: -0.037,inactive: -0.03,inactive: 0.019,inactive: -0.034,inactive: -0.031,inactive: 0.01,inactive: 0.007
TXNL1 (UniProt O43396),inactive: -0.006,inactive: 0.003,inactive: -0.002,inactive: 0,inactive: -0.002,inactive: -0.006,inactive: 0.001,inactive: 0.017,inactive: 0.008,inactive: 0.002,inactive: -0.005,inactive: 0.006,inactive: -0.011,inactive: -0.014,inactive: -0.009,inactive: 0.004,inactive: -0.043,inactive: 0.072,inactive: 0,inactive: 0.003
UBAC1 (UniProt Q9BSL1),inactive: 0.028,inactive: 0,inactive: 0.009,inactive: -0.017,inactive: 0,inactive: 0.002,inactive: 0.01,inactive: 0.023,inactive: 0.032,inactive: -0.024,inactive: 0.008,inactive: 0.015,inactive: -0.018,inactive: 0.001,inactive: 0.026,inactive: -0.019,inactive: 0.107,inactive: -0.05,inactive: 0.007,inactive: -0.001
UCK1 isoform 4 (UniProt Q9HA47),inactive: -0.091,inactive: -0.055,inactive: -0.04,inactive: 0.018,inactive: -0.021,inactive: -0.053,inactive: -0.014,inactive: 0.01,inactive: 0.046,inactive: 0.013,inactive: 0.001,inactive: -0.01,inactive: 0.138,inactive: 0.006,inactive: 0.023,inactive: 0.004,inactive: -0.21,inactive: 0.109,inactive: 0.053,inactive: 0.005
UBE2M (UniProt P61081),inactive: 0.005,inactive: -0.016,inactive: -0.022,inactive: 0.017,inactive: -0.003,inactive: -0.035,inactive: -0.016,inactive: 0.055,inactive: -0.032,inactive: -0.009,inactive: -0.026,inactive: 0.026,inactive: -0.031,inactive: 0.009,inactive: 0.011,inactive: -0.001,inactive: 0.074,inactive: 0.013,inactive: -0.049,inactive: -0.061
TXNL4B (UniProt Q9NX01),inactive: 0.157,inactive: 0.002,inactive: -0.013,inactive: -0.014,inactive: -0.034,inactive: 0.002,inactive: 0,inactive: 0.043,inactive: -0.033,inactive: 0.061,inactive: -0.015,inactive: 0.03,inactive: 0.976,inactive: -0.069,inactive: 0.024,inactive: 0.112,inactive: -0.029,inactive: 0.022,inactive: 0.006,inactive: -0.073
TUBE1 (UniProt Q9UJT0),inactive: 0.065,inactive: -0.017,inactive: 0.05,inactive: -0.034,inactive: 0.024,inactive: -0.001,inactive: 0.027,inactive: -0.02,inactive: 0.001,inactive: -0.03,inactive: 0.036,inactive: 0.012,inactive: 0.03,inactive: 0.112,inactive: -0.005,inactive: 0.028,inactive: 0.257,inactive: -0.082,inactive: 0.089,inactive: 0.043
UBXN7 (UniProt O94888),inactive: -0.009,inactive: -0.006,inactive: 0.007,inactive: -0.023,inactive: 0.009,inactive: 0.017,inactive: -0.004,inactive: -0.02,inactive: -0.001,inactive: -0.027,inactive: 0.01,inactive: 0.011,inactive: -0.01,inactive: 0.058,inactive: 0.005,inactive: -0.04,inactive: -0.044,inactive: 0.021,inactive: 0.003,inactive: 0.017
TXNDC17 (UniProt Q9BRA2),inactive: -0.055,inactive: 0.001,inactive: -0.019,inactive: -0.017,inactive: 0.019,inactive: -0.013,inactive: 0.005,inactive: -0.001,inactive: -0.023,inactive: 0.009,inactive: -0.021,inactive: -0.029,inactive: 0.023,inactive: 0.031,inactive: 0.03,inactive: -0.023,inactive: -0.054,inactive: 0.02,inactive: -0.014,inactive: -0.022
UBXN6 (UniProt Q9BZV1),inactive: 0.046,inactive: 0.174,inactive: 0.037,inactive: -0.012,inactive: 0.019,inactive: 0.121,inactive: -0.059,inactive: -0.038,inactive: 0.031,inactive: 0.041,inactive: 0.046,inactive: -0.192,inactive: -0.007,inactive: -0.025,inactive: -0.075,inactive: -0.001,inactive: 0.008,inactive: -0.015,inactive: -0.03,inactive: 0.025
